In PMC10570702 one finds binding data, which are given here for one molecule.

Results are given in words; binding and its absence hold for the method and conditions named. In cells and extracts the contact can be indirect. Some results given as binding are weak or reduced against the parent protein; the word gives no strength.

The target of this test is FLAG-Smad2 (wildtype), Q15796. Briefly: co-IP; wildtype or SUMO site mutant FLAG-Smad2, with or without SUMO1 overexpression, in HEK293T; IP with anti-FLAG from cell lysates, IB with anti-Smad4; overnight at 4 °C, protein A/G agarose. The conditions noted are these: remark: other sources report otherwise.

B1: Smad4, Q13485 1-552 (protein)
chain: MDNMSITNTPTSNDACLSIVHSLMCHRQGGESETFAKRAIESLVKKLKEKKDELDSLITAITTNGAHPSKCVTIQRTLDGRLQVAGRKGFPHVIYARLWRWPDLHKNELKHVKYCQYAFDLKCDSVCVNPYHYERVVSPGIDLSGLTLQSNAPSSMMVKDEYVHDFEGQPSLSTEGHSIQTIQHPPSNRASTETYSTPALLAPSESNATSTANFPNIPVASTSQPASILGGSHSEGLLQIASGPQPGQQQNGFTGQPATYHHNSTTTWTGSRTAPYTPNLPHHQNGHLQHHPPMPPHPGHYWPVHNELAFQPPISNHPAPEYWCSIAYFEMDVQVGETFKVPSSCPIVTVDGYVDPSGGDRFCLGQLSNVHRTEAIERARLHIGKGVQLECKGEGDVWVRCLSDHAVFVQSYYLDREAGRAPGDAVHKIYPSAYIKVFDLRQCHRQMQQQAATAQAAAAAQAAAVAGNIPGPGSVGGIAPAISLSAAAGIGVDDLRRLCILRMSFVKGWGPDYPRQSIKETPCWIEIHLHRALQLLDEVLHTMPIADPQPLD
Consider B1, for which the binding entry is on record as “binds”.
